Assay results from patent US20210363257A1.
Results are given in words; binding and its absence hold for the method and conditions named. Some binding calls cover weakened binding; strength is not graded here.

The chains behind the UniProt entries cited, without tags or fusion partners. Residues count along the entry.
UniProt Q07011, residues 24-186: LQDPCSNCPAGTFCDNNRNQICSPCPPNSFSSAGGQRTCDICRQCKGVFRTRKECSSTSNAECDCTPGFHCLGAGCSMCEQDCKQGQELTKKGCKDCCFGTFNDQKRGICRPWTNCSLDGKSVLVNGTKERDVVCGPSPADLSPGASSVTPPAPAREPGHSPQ
UniProt P41273, residues 71-254: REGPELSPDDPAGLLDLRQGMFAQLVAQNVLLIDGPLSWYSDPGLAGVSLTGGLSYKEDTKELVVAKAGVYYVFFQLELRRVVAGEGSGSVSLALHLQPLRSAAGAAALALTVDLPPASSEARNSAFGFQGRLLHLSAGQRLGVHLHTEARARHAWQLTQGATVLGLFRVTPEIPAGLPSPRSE

Biological target: biotinylated huCD137-Fc (human CD137 Fc fusion) (human) (UniProt Q07011)
Assay: SPR, biotinylated huCD137-Fc captured, 500 nM huCD137L-His applied

binding: binds
Substance: huCD137L-His (human CD137L with a C-terminal His tag) (from UniProt P41273 71-254) (ligand)
